Results as given in PMC12040169 (PLOS Biology, 2025).
The other results are listed elsewhere or left out.

Each compound was assayed on T1, CTL2-GFP (C. trachomatis L2/434/Bu, GFP-expressing). Conditions: bulk GFP, single well; 28.5 h, 10 µM; inhibitor.
T1 construct: L2/434/Bu, GFP-expressing
Parameters: species or system HeLa; Intracellular C. trachomatis growth in HeLa cells, bulk GFP fluorescence relative to DMSO

Question: `Cc1ccc(-c2c[nH]c([C@@H]3COCCN3Cc3csnn3)n2)cc1` [CBK289302] was tested. Which “% of control remaining” value did it give?
Answer: Its value is 127.993%.

Question: For `O=C(Nc1ccccc1)c1cccc(S(=O)(=O)NCc2cccs2)c1` [CBK058153], which “% of control remaining” value is on record?
Answer: The value was 145.827%.

Question: Which “% of control remaining” value does the source give for `O=C(Cc1ccsc1)N1CCCC2(CCN(Cc3ccccc3)C2)C1` (centres unmarked) [CBK136868] here?
Answer: Its value is 126.016%.

Question: For `O=C(Cn1ncn2nc(-c3ccccc3)cc2c1=O)Nc1ccc(F)cc1` [CBK287759], which “% of control remaining” value is on record?
Answer: The value was 123.076%.

Question: Which “% of control remaining” value does the source give for `CC(C)(C)C(=O)N1CCN(Cc2ccc3c(c2)OCO3)CC1` [CBK074842] here?
Answer: The value was 109.241%.

Question: For `CCc1ccc2c(c1)C(CCNC(=O)c1cscc1C(F)(F)F)C(=O)N2` (centres unmarked) [CBK304728], which “% of control remaining” value is on record?
Answer: Its value is 124.328%.

Question: For `O=C(Cn1cc(-c2ccc(CN3CCCCC3)cc2)nn1)NCc1ccc(OC(F)F)cc1` [CBK167514], which “% of control remaining” value is on record?
Answer: Its value is 137.636%.

Question: For `Cc1cc(C(=O)N2CCC(Cc3ccccc3)CC2)n[nH]1` [CBK200187], which “% of control remaining” value is on record?
Answer: The value was 104.26%.

Question: Which “% of control remaining” value does the source give for `CCC(CN1CCOCC1)NC(=O)Cc1ccc2c(c1)CCC2` (centres unmarked) [CBK282810] here?
Answer: The value was 98.31%.

Question: Which “% of control remaining” value does the source give for `CC(C)(C)OC(=O)N1CCN(CCn2cc(C(=O)O)nn2)CC1` [CBK287112] here?
Answer: The value was 117.826%.

Question: With `CC(=O)Nc1cccc(-c2cncc(NC3CCC(O)CC3)n2)c1` (centres unmarked) [CBK065404] as the compound, how does the “% of control remaining” value read?
Answer: The value was 141.977%.

Question: For `Cc1cc(I)ccc1S(=O)(=O)NCc1ccccn1` [CBK262155], which “% of control remaining” value is on record?
Answer: The value was 92.8964%.

Question: Which “% of control remaining” value does the source give for `Cc1cc(NC(=O)CS(=O)(=O)Cc2cccc(C(F)(F)F)c2)no1` [CBK304520] here?
Answer: Its value is 102.794%.

Question: With `O=C(c1cc(-c2cccnc2)[nH]n1)N1CCC(c2ccccc2)C1` (centres unmarked) [CBK281849] as the compound, how does the “% of control remaining” value read?
Answer: The value was 138.866%.

Question: For `COCCN1C(=O)C2(CC(=O)N(CC(=O)C(C)(C)C)C2=O)c2ccccc21` (centres unmarked) [CBK075324], which “% of control remaining” value is on record?
Answer: Its value is 56.7091%.

Question: How did the “% of control remaining” value turn out when `O=C(NCCOc1ccccc1)c1nccnc1-c1ccc(COc2ccc3c(c2)CCCC3)cc1` [CBK050852] was run?
Answer: The value was 197.378%.

Question: `O=C(c1cscn1)N1CCc2ccccc2C1` [CBK200342] was tested. Which “% of control remaining” value did it give?
Answer: Its value is 102.04%.

Question: `COc1ccc(NC(=O)CN2CCN(S(=O)(=O)N(C)C)CC2)cc1` [CBK267465] was tested. Which “% of control remaining” value did it give?
Answer: The value was 105.159%.

Question: With `COc1ccc(C(=O)NC(c2ccc(OC)c(OC)c2)c2cc(Cl)c3cccnc3c2O)cc1` (centres unmarked) [CBK263992] as the compound, how does the “% of control remaining” value read?
Answer: The value was 111.348%.

Question: Which “% of control remaining” value does the source give for `Cc1ccc(-c2noc(CNC(=O)CSc3ccccc3)n2)cc1` [CBK270199] here?
Answer: The value was 147.067%.

Question: With `CCOC(=O)CSc1nnc(-c2ccc(Cl)cc2)o1` [CBK068845] as the compound, how does the “% of control remaining” value read?
Answer: The value was 101.376%.

Question: Which “% of control remaining” value does the source give for `N#CCCn1cc(C(=O)N2CCCCC2)c(-c2cccc(Br)c2)n1` [CBK306202] here?
Answer: Its value is 166.999%.

Question: Which “% of control remaining” value does the source give for `NNC(=O)CNS(=O)(=O)c1ccccc1` [CBK261967] here?
Answer: The value was 134.498%.

Question: Which “% of control remaining” value does the source give for `CN(C)CCNC(=O)c1ccc(-c2cnc3[nH]c(=O)n(C4CCCC4)c3n2)cc1` [CBK064957] here?
Answer: The value was 107.758%.

Question: How did the “% of control remaining” value turn out when `COc1cccc(CN(Cc2ccco2)Cc2[nH]cnc2C)c1` [CBK282495] was run?
Answer: The value was 126.759%.

Question: With `OCCNC(=S)Nc1ccc(Cl)cc1Cl` [CBK265330] as the compound, how does the “% of control remaining” value read?
Answer: Its value is 123.644%.

Question: With `O=C(c1ccccc1F)N1C[C@H](c2ccsc2)[C@H]2CN(Cc3cccs3)CC[C@H]21` [CBK285657] as the compound, how does the “% of control remaining” value read?
Answer: Its value is 99.6438%.

Question: Which “% of control remaining” value does the source give for `O=C(O)CNC(=O)[C@H]1CC[C@H](Cn2cnc3ccccc3c2=O)CC1` [CBK286714] here?
Answer: The value was 124.182%.

Question: With `COc1ccc2nc(Nc3nc(C)c(C(C)=O)s3)sc2c1` [CBK287483] as the compound, how does the “% of control remaining” value read?
Answer: The value was 159.865%.

Question: With `CCCOc1ccc(C(=O)C(CN(CC)CC)Oc2ccccc2)cc1` (centres unmarked) [CBK011944C] as the compound, how does the “% of control remaining” value read?
Answer: The value was 91.1722%.

Question: `Cc1cnn(CC2CCCCN2CC(=O)NCc2ccccn2)c1` (centres unmarked) [CBK304041] was tested. Which “% of control remaining” value did it give?
Answer: The value was 98.7572%.

Question: For `CC1CCN(S(=O)(=O)N2CCNCC2)CC1` [CBK269836C], which “% of control remaining” value is on record?
Answer: Its value is 123.422%.

Question: How did the “% of control remaining” value turn out when `Cc1cc(C)n(C2CCN(Cc3c(C)nc4c(C)cccn34)CC2)n1` [CBK281617] was run?
Answer: The value was 74.4169%.

Question: `CC1CC1C(=O)NCC(=O)N1CCN(S(=O)(=O)c2ccccc2[N+](=O)[O-])CC1` (centres unmarked) [CBK296747] was tested. Which “% of control remaining” value did it give?
Answer: The value was 145.496%.

Question: Which “% of control remaining” value does the source give for `O=C(NC(C(=O)N/N=C/c1ccc(Cl)cc1Cl)c1n[nH]c(=O)c2ccccc12)c1ccccc1` (centres unmarked) [CBK261118] here?
Answer: Its value is 117.908%.

Question: Which “% of control remaining” value does the source give for `COCCNc1nc(-c2ccccc2)ccc1C(=O)N(C)CCN(C)C` [CBK105913] here?
Answer: The value was 149.687%.

Question: For `Cc1ccc2nc(N3CCCC(O)C3)c(CN3CCSCC3)cc2c1` (centres unmarked) [CBK307000], which “% of control remaining” value is on record?
Answer: Its value is 147.229%.

Question: Which “% of control remaining” value does the source give for `O=C(O)C1C2CCC(O2)C1C(=O)NCc1ccco1` (centres unmarked) [CBK263675] here?
Answer: Its value is 116.334%.

Question: `C#Cc1cn([C@H]2C[C@@H](O)[C@@H](CO)O2)c(=O)[nH]c1=O` [CBK201207] was tested. Which “% of control remaining” value did it give?
Answer: The value was 112.531%.

Question: With `CCCn1c(SCC(=O)N(C)Cc2ccc(OCC)cc2)n[nH]c1=O` [CBK295132] as the compound, how does the “% of control remaining” value read?
Answer: The value was 176.833%.

Question: `N#Cc1ccc(SCCOC(=O)c2cccs2)c([N+](=O)[O-])c1` [CBK066853] was tested. Which “% of control remaining” value did it give?
Answer: The value was 128.286%.

Question: How did the “% of control remaining” value turn out when `Cc1cnc(CNS(=O)(=O)c2ccc(C(C)C)cc2)cn1` [CBK044615] was run?
Answer: Its value is 100.039%.

Question: Which “% of control remaining” value does the source give for `CS(=O)(=O)c1ccc(-c2ccc3c(c2)COC(C2CCN(C(=O)OCc4ccccc4)CC2)O3)cc1` (centres unmarked) [CBK144643] here?
Answer: Its value is 102.881%.

Question: `Cc1[nH]c2c(C(=O)NCCCC3CCOC3)cccc2c1C` (centres unmarked) [CBK282551] was tested. Which “% of control remaining” value did it give?
Answer: Its value is 95.871%.

Question: Which “% of control remaining” value does the source give for `CS(=O)(=O)c1ccc(-c2c[nH]c([C@@H]3COCCN3C3CCCCC3)n2)cc1` [CBK289299] here?
Answer: Its value is 113.561%.

Question: `OCCN1CCN(c2nccc(C(F)(F)F)n2)CC1` [CBK028754] was tested. Which “% of control remaining” value did it give?
Answer: Its value is 116.399%.

Question: For `Fc1ccc(-c2ccc(CNCCCN3CCOCC3)o2)cc1` [CBK278199C], which “% of control remaining” value is on record?
Answer: Its value is 147.127%.

Question: With `CC1(C)CC(NS(=O)(=O)c2ccc(Br)cc2)CC(C)(C)N1` [CBK266805] as the compound, how does the “% of control remaining” value read?
Answer: The value was 168.188%.

Question: How did the “% of control remaining” value turn out when `CS(=O)(=O)Nc1nn(-c2ccc(NC(=O)c3ccno3)cc2)c2ccccc12` [CBK048591] was run?
Answer: The value was 78.7287%.

Question: `O=C(c1ccccc1)N1CCN(c2ccc(-n3cccn3)nn2)CC1` [CBK287662] was tested. Which “% of control remaining” value did it give?
Answer: Its value is 151.423%.
